Experimental data taken from patent US10377770B2 (Novartis AG, priority 2015, dated 2019).
Structures were worked out from names or drawings and are uncertain.

Amino acid sequences for entries named in this document (tags omitted).
UniProt P04049, whole entry Y340E/Y341E: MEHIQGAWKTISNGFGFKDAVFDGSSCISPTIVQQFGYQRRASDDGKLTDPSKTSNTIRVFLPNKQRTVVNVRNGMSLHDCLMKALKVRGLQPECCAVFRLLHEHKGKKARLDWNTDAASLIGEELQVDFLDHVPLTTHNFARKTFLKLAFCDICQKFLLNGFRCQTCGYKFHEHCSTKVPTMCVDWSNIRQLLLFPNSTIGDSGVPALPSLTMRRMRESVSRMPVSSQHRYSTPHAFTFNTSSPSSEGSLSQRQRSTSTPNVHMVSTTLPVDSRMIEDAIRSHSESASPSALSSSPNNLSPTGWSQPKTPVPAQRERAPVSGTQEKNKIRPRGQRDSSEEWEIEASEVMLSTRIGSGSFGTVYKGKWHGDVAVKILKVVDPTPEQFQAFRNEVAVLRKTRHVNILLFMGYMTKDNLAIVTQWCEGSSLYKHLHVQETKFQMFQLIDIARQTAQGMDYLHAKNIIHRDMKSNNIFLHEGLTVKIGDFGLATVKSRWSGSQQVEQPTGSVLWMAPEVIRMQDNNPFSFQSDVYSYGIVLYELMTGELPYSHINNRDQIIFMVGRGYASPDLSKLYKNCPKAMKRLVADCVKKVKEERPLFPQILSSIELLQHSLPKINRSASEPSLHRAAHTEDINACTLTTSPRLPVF
UniProt P63104, whole entry partner: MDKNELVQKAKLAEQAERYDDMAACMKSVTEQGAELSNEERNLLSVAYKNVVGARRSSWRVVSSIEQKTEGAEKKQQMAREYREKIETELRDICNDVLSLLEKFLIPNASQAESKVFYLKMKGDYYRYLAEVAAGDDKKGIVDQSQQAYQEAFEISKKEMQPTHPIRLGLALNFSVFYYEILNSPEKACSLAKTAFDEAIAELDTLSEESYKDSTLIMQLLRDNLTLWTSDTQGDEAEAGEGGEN

Molecular target: C-Raf FL (full length CRAF with Y340E and Y341E activating mutations, co-expressed with h14-3-3 zeta) (Homo sapiens (Human), UniProt P04049, Y340E/Y341E)
Test: In vitro Raf activity determination, AlphaScreen p-MEK readout, c-Raf (C-Raf FL)
Format: biochemical
Settings: read-out: C-RAF IC50 μM, c-Raf approximately 4 nM, ATP 1 μM, pre-incubation 60 minutes, reaction 1 hour

## Cc1ncc(NC(=O)c2ccnc(C(C)(C)C#N)c2)cc1-c1ccc2c(c1)N1CCOC[C@@H]1C[C@@H]2O (relative stereo)
  IC50: 7.2 pM
